Source: publication PMC12805371
Results are given in words; binding and its absence hold for the method and conditions named. Binding seen in cells or lysates may run through a third protein. These calls come from enrichment with a bait or labelling near it, and not all partners need be listed. No binding means not detected with the bait.

The chains behind the UniProt entries cited, without tags or fusion partners. Where a name states a change or a piece, a line headed by the entry shows the natural chain unless it says otherwise. Residues count along the entry.
UniProt O75808: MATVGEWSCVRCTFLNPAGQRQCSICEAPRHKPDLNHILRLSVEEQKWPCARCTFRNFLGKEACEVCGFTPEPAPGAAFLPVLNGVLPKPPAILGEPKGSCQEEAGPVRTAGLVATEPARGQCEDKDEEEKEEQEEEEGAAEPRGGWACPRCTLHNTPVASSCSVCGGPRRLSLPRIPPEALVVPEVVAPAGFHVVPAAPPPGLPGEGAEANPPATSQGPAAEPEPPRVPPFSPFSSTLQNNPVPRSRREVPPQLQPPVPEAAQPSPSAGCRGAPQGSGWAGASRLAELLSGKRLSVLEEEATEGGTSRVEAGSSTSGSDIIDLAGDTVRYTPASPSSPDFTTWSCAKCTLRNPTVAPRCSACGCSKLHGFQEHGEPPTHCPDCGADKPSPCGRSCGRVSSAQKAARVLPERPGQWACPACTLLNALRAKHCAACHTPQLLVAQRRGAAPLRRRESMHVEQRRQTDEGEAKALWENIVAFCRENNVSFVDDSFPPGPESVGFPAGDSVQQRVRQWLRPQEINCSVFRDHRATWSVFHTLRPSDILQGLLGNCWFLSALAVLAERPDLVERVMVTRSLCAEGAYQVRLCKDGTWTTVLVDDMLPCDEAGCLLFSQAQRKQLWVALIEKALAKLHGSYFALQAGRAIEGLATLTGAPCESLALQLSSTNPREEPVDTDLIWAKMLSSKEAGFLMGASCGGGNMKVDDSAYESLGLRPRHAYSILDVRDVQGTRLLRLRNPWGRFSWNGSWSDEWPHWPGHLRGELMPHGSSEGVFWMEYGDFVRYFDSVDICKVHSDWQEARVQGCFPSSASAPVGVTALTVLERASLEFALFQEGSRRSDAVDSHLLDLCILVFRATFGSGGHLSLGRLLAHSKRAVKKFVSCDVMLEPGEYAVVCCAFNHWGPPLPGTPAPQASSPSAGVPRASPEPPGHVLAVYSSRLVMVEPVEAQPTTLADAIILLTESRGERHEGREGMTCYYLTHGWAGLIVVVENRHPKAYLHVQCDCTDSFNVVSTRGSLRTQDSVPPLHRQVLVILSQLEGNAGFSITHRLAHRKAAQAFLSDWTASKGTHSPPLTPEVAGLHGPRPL
UniProt P22223, residues 108-829: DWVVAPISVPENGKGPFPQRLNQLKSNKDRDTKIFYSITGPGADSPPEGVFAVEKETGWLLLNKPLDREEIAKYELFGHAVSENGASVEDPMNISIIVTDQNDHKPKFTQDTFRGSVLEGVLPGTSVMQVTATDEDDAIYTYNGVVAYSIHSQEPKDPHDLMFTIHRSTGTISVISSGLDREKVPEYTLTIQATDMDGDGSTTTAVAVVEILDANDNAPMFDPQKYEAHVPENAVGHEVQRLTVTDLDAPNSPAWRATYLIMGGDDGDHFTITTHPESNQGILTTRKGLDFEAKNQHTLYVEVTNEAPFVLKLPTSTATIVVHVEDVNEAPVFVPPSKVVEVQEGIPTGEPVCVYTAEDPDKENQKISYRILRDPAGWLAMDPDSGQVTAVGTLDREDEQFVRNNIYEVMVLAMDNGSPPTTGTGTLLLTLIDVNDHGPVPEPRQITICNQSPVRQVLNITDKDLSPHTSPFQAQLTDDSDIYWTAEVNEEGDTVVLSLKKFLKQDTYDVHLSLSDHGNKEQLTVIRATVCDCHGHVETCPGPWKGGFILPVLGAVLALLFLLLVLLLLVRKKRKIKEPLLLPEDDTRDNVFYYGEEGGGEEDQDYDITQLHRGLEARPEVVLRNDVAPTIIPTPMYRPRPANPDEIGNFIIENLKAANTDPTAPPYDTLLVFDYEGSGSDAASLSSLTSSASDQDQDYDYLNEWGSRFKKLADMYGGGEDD
UniProt P35221: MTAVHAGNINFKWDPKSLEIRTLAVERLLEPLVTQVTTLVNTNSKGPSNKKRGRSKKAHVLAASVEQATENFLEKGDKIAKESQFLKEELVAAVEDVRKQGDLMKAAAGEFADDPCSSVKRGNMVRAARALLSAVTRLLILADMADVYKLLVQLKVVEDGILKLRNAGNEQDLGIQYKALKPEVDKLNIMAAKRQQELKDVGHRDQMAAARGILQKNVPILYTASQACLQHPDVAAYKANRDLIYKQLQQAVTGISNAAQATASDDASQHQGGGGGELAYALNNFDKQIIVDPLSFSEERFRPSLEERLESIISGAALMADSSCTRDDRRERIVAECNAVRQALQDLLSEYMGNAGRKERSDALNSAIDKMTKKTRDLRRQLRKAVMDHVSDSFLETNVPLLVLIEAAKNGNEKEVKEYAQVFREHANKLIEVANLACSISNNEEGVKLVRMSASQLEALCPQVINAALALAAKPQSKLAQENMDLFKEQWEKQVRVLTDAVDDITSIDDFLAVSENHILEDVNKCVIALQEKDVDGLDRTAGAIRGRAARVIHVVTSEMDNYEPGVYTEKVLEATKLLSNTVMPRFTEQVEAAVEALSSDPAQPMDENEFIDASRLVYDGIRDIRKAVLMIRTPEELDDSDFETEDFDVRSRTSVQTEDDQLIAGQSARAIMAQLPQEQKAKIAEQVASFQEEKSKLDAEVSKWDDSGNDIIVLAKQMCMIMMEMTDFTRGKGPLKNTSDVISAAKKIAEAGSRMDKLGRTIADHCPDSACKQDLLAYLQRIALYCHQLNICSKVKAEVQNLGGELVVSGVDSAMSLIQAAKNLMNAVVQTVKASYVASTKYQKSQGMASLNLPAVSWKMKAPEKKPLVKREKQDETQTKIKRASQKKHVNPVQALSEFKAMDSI

Experiments:
[1] = target: FLAG-tagged protease-inactive CAPN15C552S (human) (UniProt O75808); assay: affinity purification with mass spectrometry; anti-FLAG immunoprecipitates from KO, WTtg, CStg and NEtg cells; in-gel digestion, LC-MS, intensity-based label-free quantification, biological duplicates
[2] = target: FLAG-tagged WT CAPN15 (human) (UniProt O75808); assay: as above

## P-cadherin/CDH3 (from UniProt P22223 108-829)
[1]
  binding: binds

## α-catenin/CTNNA1 (from UniProt P35221 1-906)
[1]
  binding: binds

B1: p120-catenin (protein, UniProt O60716 1-968)
chain: MDDSEVESTASILASVKEQEAQFEKLTRALEEERRHVSAQLERVRVSPQDANPLMANGTLTRRHQNGRFVGDADLERQKFSDLKLNGPQDHSHLLYSTIPRMQEPGQIVETYTEEDPEGAMSVVSVETSDDGTTRRTETTVKKVVKTVTTRTVQPVAMGPDGLPVDASSVSNNYIQTLGRDFRKNGNGGPGPYVGQAGTATLPRNFHYPPDGYSRHYEDGYPGGSDNYGSLSRVTRIEERYRPSMEGYRAPSRQDVYGPQPQVRVGGSSVDLHRFHPEPYGLEDDQRSMGYDDLDYGMMSDYGTARRTGTPSDPRRRLRSYEDMIGEEVPSDQYYWAPLAQHERGSLASLDSLRKGGPPPPNWRQPELPEVIAMLGFRLDAVKSNAAAYLQHLCYRNDKVKTDVRKLKGIPVLVGLLDHPKKEVHLGACGALKNISFGRDQDNKIAIKNCDGVPALVRLLRKARDMDLTEVITGTLWNLSSHDSIKMEIVDHALHALTDEVIIPHSGWEREPNEDCKPRHIEWESVLTNTAGCLRNVSSERSEARRKLRECDGLVDALIFIVQAEIGQKDSDSKLVENCVCLLRNLSYQVHREIPQAERYQEAAPNVANNTGPHAASCFGAKKGKDEWFSRGKKPIEDPANDTVDFPKRTSPARGYELLFQPEVVRIYISLLKESKTPAILEASAGAIQNLCAGRWTYGRYIRSALRQEKALSAIADLLTNEHERVVKAASGALRNLAVDARNKELIGKHAIPNLVKNLPGGQQNSSWNFSEDTVISILNTINEVIAENLEAAKKLRETQGIEKLVLINKSGNRSEKEVRAAALVLQTIWGYKELRKPLEKEGWKKSDFQVNLNNASRSQSSHSYDDSTLPLIDRNQKSDKKPDREEIQMSNMGSNTKSLDNNYSTPNERGDHNRTLDRSGDLGDMEPLKGTTPLMQDEGQESLEEELDVLVLDDEGGQVSYPSMQKI
[2]
  binding: no binding
[1]
  binding: no binding
